Data as given in the supplement of paper PMC5949888.
Most values lie at the floor of the assay. Slopes are relative: functional sequences can read slightly below zero.

tested on: Saccharomyces cerevisiae PS128 hsf1 delta, HSF1(1-493) fusion; test: growth estimate (transactivation domain function in HSF1 fusion, heat-shock survival) (a.u. (slope of normalised read count over time)); higher = stronger growth at 37°C, i.e. more transactivation activity; settings: library: random library

Row | Substance | growth estimate
1 | VVLRSHDWGGQHFPGSKVNL | -0.25
2 | RSLKHALG | < -0.25
3 | ARITIRASLNLFYPKSSTDR | < -0.25
4 | LGCVRRWSSIRRALESLYFQ | < -0.25
5 | ASLYGLPDDADRVDANSCDA | < -0.25
6 | RGMPAPPVREAEHGGTSYSL | < -0.25
7 | IVYNV | < -0.25
8 | RLVHTWRLLNSRFMLIIAVD | < -0.25
9 | RPSCKAYGKGYN | < -0.25
10 | ISRPLSTL | -0.243
11 | CHS | -0.2
12 | SARDTAAGWPGGSGDPGWIK | < -0.25
13 | SNLGTVTDHGCSNRDSPVVS | < -0.25
14 | AAPNRDFPELSLLNFLGHGR | -0.176
15 | AHIA | < -0.25
16 | IQLPVRTARAQKVKVYHASV | < -0.25
17 | GLDTRTNGFRKDS | < -0.25
18 | DRW | < -0.25
19 | LSHMNTGPGEPGQLGTLFVS | < -0.25
20 | ISACCATYGCLYTSSNYLTL | -0.218
21 | GVALERSQRRLVGNSQ | < -0.25
22 | MTSI | < -0.25
23 | LTRIDTCAVIADCVGVQGPG | < -0.25
24 | YREIM | < -0.25
25 | CYIIS | < -0.25
26 | YQRFE | < -0.25

Row | Substance | growth estimate
27 | ERLVRQLKTLSNVYEIIAKG | < -0.25
28 | DSEGGQGRCRITGSRLITPT | < -0.25
29 | QLFEVCVGLHFTFLPKVSGD | < -0.25
30 | LQVGLDALSRGSYPARNVCC | < -0.25
31 | NVVGVAIGASLSGRRASPVV | < -0.25
32 | KGLRTGWP | < -0.25
33 | NSGKTMQVCFYDCL | < -0.25
34 | LLRIESAF | < -0.25
35 | VATGGFRDIRNANPSSSIVR | < -0.25
36 | ETFHLMPA | < -0.25
37 | IGNPRLLCHS | < -0.25
38 | SLGLGPYYPKVVRPTCAGTN | < -0.25
39 | KVVRGPIKEQDVCGGKVGHW | < -0.25
40 | VRGRINGLDQILKETTADPN | < -0.25
41 | RGTDGN | < -0.25
42 | TPTRRLGTAA | < -0.25
43 | GRQGR | < -0.25
44 | WLFEFLIRHL | < -0.25
45 | EGEFIDTPPS | < -0.25
46 | VPDKHLACNLWILQKQRLCV | < -0.25
47 | GLPPSC | < -0.25
48 | HGQINAREDIVGSGPLFLNS | < -0.25
49 | IANSGRSGSC | < -0.25
50 | MNSEWSQSA | < -0.25
51 | GESPEMS | < -0.25
52 | TILV | < -0.25

Row | Substance | growth estimate
53 | LGPLWIPP | < -0.25
54 | RTSAGPAPPALYP | < -0.25
55 | VDLLSLTRPSILGS | < -0.25
56 | LGGSNHFVSCRASNGHNIRP | < -0.25
57 | CSRREY | < -0.25
58 | VPSASLGQRHAGSRVDIWVS | < -0.25
59 | IRLEN | < -0.25
60 | SKMLGHIADQMPAMPKACDG | < -0.25
61 | TGSFY | < -0.25
62 | TIFAG | < -0.25
63 | CVPSIFIGGTDLGVWHRVTK | < -0.25
64 | DPPI | < -0.25
65 | CTISR | < -0.25
66 | CGYQ | < -0.25
67 | RKGRRDFPDTTF | < -0.25
68 | YPSIRFYGRADEKNIGLVKP | < -0.25
69 | PVSTCVIEQAYHLTAPRETQ | -0.243
70 | LHGISSCVVTV | < -0.25
71 | LTCVEAWGTLDH | < -0.25
72 | LTRIGPQCCTRGAEMCQQLI | < -0.25
73 | HQMH | < -0.25
74 | GHDNRRRRLP | < -0.25
75 | LFSYQG | < -0.25
76 | SPVLGNPEWLADGSPPPPSR | < -0.25
77 | DRM | < -0.25
78 | WPPRKVRLIQP | < -0.25

Copied from the list.
growth estimate, LHGISSCVVTV reads < -0.25
growth estimate, LGCVRRWSSIRRALESLYFQ reads < -0.25

Following part.

Row | Substance | growth estimate
79 | QPCSHLP | < -0.25
80 | VCRARKASLGST | < -0.25
81 | LREHQGPEGASGYAPVGSHT | -0.243
82 | MSRHPGYAL | < -0.25
83 | SKSRDGYPMY | < -0.25
84 | WEE | < -0.25
85 | QYPDDRNGVM | < -0.25
86 | VGPPQYSIGHEV | < -0.25
87 | QGAKKDGRQTWNFGIQSLTS | < -0.25
88 | PIHHSSW | < -0.25
89 | VQIPQCCPEEEVDEVGF | < -0.25
90 | RIGWSRISRLLPSMVYSRNG | < -0.25
91 | KSIVTSSGITTFQL | -0.229
92 | IGR | < -0.25
93 | DAREIDL | < -0.25
94 | DFLESSYSAGHSPELALQTA | < -0.25
95 | IFKRAMVMQNSQRLCGPLDP | < -0.25
96 | FLPPMYGMYWGRSGTVTTRG | < -0.25
97 | PECTRCGTSPLAVS | < -0.25
98 | LPVLCPWVQYRNCRRLLPLR | < -0.25
99 | CSPG | < -0.25
100 | VVGVPSAMNWRALQEWHPTS | < -0.25
101 | ALSRIIGSGGKMRE | < -0.25
102 | GKARAAGVNSVMGPSCKRPE | < -0.25
103 | SEKFNSFGSQGPSLH | < -0.25
104 | FQTQEREIPAVQLQLISQPH | < -0.25

Row | Substance | growth estimate
105 | LCPTQTFTRRIGRGSNLRLY | < -0.25
106 | CCGRFHGFINHRRPEDR | < -0.25
107 | VKANKRYLAGLRYDIVVD | < -0.25
108 | GWILSHCSTYQLSDMLGVTS | < -0.25
109 | GWIRTTKGSIRYSVSYKVML | < -0.25
110 | GSALAFFLPVRGWYWPPGTN | < -0.25
111 | RISLDVIAIREFDLHGVQHC | < -0.25
112 | WECDSEQHLRGPNRMSLESP | < -0.25
113 | EGMGLYEPWSWFPVGLCEG | < -0.25
114 | SPIRQHKPPTWS | < -0.25
115 | DVVR | < -0.25
116 | VIVGRCEMTRSCNTGEVKRT | < -0.25
117 | ILCGCDAALSKTACLSRAWG | < -0.25
118 | GCLGSEDGSRGVPNEKGDWR | < -0.25
119 | KPERQIH | < -0.25
120 | QLTIRSLHAQPIRCCKLEKE | < -0.25
121 | AERTVAPDIQDIGKERTRGL | < -0.25
122 | THYGGRPGPLVNL | < -0.25
123 | RCLHRPRDAVGRPRVGSRSI | < -0.25
124 | SGIRYIQGCEQVRPSLKGM | -0.172
125 | TTKGHPRHR | < -0.25
126 | RFDVEGTYHGCSGSVERSIW | < -0.25
127 | VELKN | -0.239
128 | IGILRVNLQTCSEADPRIHA | < -0.25
129 | CNRLTLAFQSDRIGPSEKGR | < -0.25
130 | GFRG | < -0.25

Row | Substance | growth estimate
131 | VQGPGTRPCMAVSG | < -0.25
132 | PSERCYI | < -0.25
133 | LNRSNKYAMLPSAGFLTRPG | < -0.25
134 | GYGLSSVTSNLGVSNELGA | < -0.25
135 | NMGTQRYRIVIK | < -0.25
136 | QPWMGLLAADFSAAFLRQLL | < -0.25
137 | MIALSMIGSQPKTISCEYS | < -0.25
138 | VHGVLSGSLLQGLRRAEAFQ | < -0.25
139 | MCSGSSTTSLCERRSTAMRR | -0.229
140 | KYSGWVVIVLLLDEIPTRLL | < -0.25
141 | SPD | -0.154
142 | AVYVAWDI | -0.232
143 | KSDCRRNAVLVCDCHTQFGY | < -0.25
144 | VTYMECMPPVSCDTPISIHV | -0.246
145 | AVPDISQRAALAGWHCSDSA | < -0.25
146 | WDFDLVTIQSLRAPPFCVTL | < -0.25
147 | NCPGTKLSIVPML | < -0.25
148 | LEEIRFHLEVLSGHELSDFR | -0.123
149 | PLSQ | < -0.25
150 | RIRPLS | < -0.25
151 | RLRT | < -0.25
152 | LRIIFGSVLKSRGAA | < -0.25
153 | LRFLA | < -0.25
154 | LGRSPQACVRGQIGAWTSMV | < -0.25
155 | QAACFAGKRLANFWR | < -0.25
156 | SDTPPPVWSSVVCSIRFVVN | < -0.25

Excerpt: entries 17 to 22
Row | Substance | growth estimate
17 | GLDTRTNGFRKDS | < -0.25
18 | DRW | < -0.25
19 | LSHMNTGPGEPGQLGTLFVS | < -0.25
20 | ISACCATYGCLYTSSNYLTL | -0.218
21 | GVALERSQRRLVGNSQ | < -0.25
22 | MTSI | < -0.25

Next part.

Row | Substance | growth estimate
157 | KRKRGQPRVYQV | < -0.25
158 | RMLARGRDDISTTAHIRFPA | < -0.25
159 | FYYSGIAGLLSAHMSEPTCT | < -0.25
160 | GMGFFRRWDSSWYSPALLAF | < -0.25
161 | CNV | < -0.25
162 | RGMSEDRGSTVLAP | < -0.25
163 | WIRSFLLLESAEQATVSNR | < -0.25
164 | IGVVPSTLRIDVSLQIATCR | < -0.25
165 | VIYRFGMSANHRSERGSCVG | < -0.25
166 | VTTSQMSSRAIAF | < -0.25
167 | SPTLFSHVTVKKHGRGSPRM | < -0.25
168 | CRRVFLYSGPGRKI | < -0.25
169 | TDLISRLMVCVIH | < -0.25
170 | RNSVLYAFRVFQSSLGSVVS | < -0.25
171 | KYTNAGKSL | < -0.25
172 | GPNLLSRFAPGRRSP | < -0.25
173 | VKAGCLRANYGSITRCDDLT | < -0.25
174 | GGWSDMALQRCV | -0.243
175 | PSRCLRGGCSVCLPVLYTHK | < -0.25
176 | PFWKATEGHKYSRISDAYRA | < -0.25
177 | GGLPVDRVHDHDDALAVSDD | < -0.25
178 | IVTGLMVMSAPRHPCICGGV | < -0.25
179 | RPISPAKGQYVPYGCHWTEL | < -0.25
180 | NLVVGGCDGHQNHLSL | < -0.25
181 | GYRIGT | < -0.25
182 | EPKELKSDTSHAPKRVIIIR | < -0.25

Row | Substance | growth estimate
183 | DGCVLRALVPPEVTVYFYTP | < -0.25
184 | CETLLIGYSVIFTVGEPSHA | < -0.25
185 | IGSWAMSSCCDCPTNCNGQA | < -0.25
186 | TCLCISTRRVIEATHHGKKW | < -0.25
187 | ASEIPPRPI | -0.185
188 | SRYGCFRISEERTIRRLSTV | < -0.25
189 | AFTKC | < -0.25
190 | ISIRYPVITRIILSGYRG | < -0.25
191 | VSPSIHWSCCNDPPLVYAIG | < -0.25
192 | AGH | < -0.25
193 | ALSPQTMLREDYIAHYINHT | < -0.25
194 | AYVRDTSGEGTHGNILEQR | < -0.25
195 | DTM | < -0.25
196 | KKHRHLNALATTYNRCTYNS | < -0.25
197 | TSRFLVV | < -0.25
198 | LKVVDV | < -0.25
199 | GLSMRSKSWWVDTPRPVAFC | < -0.25
200 | SVHDKPGQMSVVCWALRTVI | < -0.25
201 | IKGVGPLQAY | < -0.25
